# Measured values: patent US20220040297A1
# Chains of the proteins cited; added tags and fusions are not shown. Residues count along the entry.
# UniProt P07766, residues 23-126: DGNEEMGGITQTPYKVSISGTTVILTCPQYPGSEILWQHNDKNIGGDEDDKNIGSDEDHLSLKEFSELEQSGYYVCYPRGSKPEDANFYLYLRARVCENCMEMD
# Results are given in words; binding and its absence hold for the method and conditions named. Some entries that bind do so weakly or less than the wild type.
# B1: CE115HA340 (antibody, human IgG1, L234A L235A, N297A, V domains shown)
# VH: QVQLVESGGGLVQPGRSLRLSCAASGFTFSNAWMHWVRQAPGKGLEWVAQIKDKSNNYATYYAESVKGRFTISRDDSKNSIYLQMNSLKTEDTAVYYCRYVHYAAYYGVDAWGQGTTVTVSS
# VL: DIVMTQSPLSLPVTPGEPASISCRSSQSLVHSNRNTYLHWYQQKPGQAPRLLIYKVSNRFSGVPDRFSGSGSGTDFTLKISRVEAEDVGVYYCGQGTQVPYTFGQGTKLEIK
# Biological target: CD3ε homodimer protein (human) (UniProt P07766)
# Assay: SPR Biacore, method of (6-3)
binder,measurement,value
B1,binding,binds
